Compound in this test: CC1Cc2ccccc2N1C(=O)C1CCCN(C1)C(=O)CCl (mixture of isomers) [TRIM25 ligand 11 (diastereomer mixture)]
As to the kind of experiment: probe-labelled cysteine peptide fold change vs DMSO (competition) (log2 fold change); higher = less target engagement (more negative = stronger competition). To be noted: THP-1, incubation time: 4 h.

Chains of the proteins cited; added tags and fusions are not shown. Lines headed by an entry give the natural chain unless they say otherwise; changes in a name come on top.
UniProt Q9P0U4, whole entry, looked up: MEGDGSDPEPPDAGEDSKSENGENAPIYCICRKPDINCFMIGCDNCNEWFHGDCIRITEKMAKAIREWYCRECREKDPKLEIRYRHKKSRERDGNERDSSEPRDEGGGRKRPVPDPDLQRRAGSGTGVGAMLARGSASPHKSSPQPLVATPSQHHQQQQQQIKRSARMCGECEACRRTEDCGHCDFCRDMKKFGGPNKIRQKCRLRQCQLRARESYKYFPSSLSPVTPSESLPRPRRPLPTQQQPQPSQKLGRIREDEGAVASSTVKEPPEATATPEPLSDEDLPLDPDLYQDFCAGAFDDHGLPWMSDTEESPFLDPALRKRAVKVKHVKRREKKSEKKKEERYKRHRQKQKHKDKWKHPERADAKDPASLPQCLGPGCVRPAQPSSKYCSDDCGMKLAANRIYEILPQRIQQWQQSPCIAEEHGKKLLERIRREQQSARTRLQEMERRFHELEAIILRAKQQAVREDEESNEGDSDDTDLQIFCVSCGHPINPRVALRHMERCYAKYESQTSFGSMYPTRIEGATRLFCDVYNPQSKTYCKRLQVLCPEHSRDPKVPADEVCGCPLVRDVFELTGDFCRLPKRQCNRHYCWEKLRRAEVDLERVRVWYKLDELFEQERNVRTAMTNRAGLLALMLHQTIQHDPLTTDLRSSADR
UniProt Q14999: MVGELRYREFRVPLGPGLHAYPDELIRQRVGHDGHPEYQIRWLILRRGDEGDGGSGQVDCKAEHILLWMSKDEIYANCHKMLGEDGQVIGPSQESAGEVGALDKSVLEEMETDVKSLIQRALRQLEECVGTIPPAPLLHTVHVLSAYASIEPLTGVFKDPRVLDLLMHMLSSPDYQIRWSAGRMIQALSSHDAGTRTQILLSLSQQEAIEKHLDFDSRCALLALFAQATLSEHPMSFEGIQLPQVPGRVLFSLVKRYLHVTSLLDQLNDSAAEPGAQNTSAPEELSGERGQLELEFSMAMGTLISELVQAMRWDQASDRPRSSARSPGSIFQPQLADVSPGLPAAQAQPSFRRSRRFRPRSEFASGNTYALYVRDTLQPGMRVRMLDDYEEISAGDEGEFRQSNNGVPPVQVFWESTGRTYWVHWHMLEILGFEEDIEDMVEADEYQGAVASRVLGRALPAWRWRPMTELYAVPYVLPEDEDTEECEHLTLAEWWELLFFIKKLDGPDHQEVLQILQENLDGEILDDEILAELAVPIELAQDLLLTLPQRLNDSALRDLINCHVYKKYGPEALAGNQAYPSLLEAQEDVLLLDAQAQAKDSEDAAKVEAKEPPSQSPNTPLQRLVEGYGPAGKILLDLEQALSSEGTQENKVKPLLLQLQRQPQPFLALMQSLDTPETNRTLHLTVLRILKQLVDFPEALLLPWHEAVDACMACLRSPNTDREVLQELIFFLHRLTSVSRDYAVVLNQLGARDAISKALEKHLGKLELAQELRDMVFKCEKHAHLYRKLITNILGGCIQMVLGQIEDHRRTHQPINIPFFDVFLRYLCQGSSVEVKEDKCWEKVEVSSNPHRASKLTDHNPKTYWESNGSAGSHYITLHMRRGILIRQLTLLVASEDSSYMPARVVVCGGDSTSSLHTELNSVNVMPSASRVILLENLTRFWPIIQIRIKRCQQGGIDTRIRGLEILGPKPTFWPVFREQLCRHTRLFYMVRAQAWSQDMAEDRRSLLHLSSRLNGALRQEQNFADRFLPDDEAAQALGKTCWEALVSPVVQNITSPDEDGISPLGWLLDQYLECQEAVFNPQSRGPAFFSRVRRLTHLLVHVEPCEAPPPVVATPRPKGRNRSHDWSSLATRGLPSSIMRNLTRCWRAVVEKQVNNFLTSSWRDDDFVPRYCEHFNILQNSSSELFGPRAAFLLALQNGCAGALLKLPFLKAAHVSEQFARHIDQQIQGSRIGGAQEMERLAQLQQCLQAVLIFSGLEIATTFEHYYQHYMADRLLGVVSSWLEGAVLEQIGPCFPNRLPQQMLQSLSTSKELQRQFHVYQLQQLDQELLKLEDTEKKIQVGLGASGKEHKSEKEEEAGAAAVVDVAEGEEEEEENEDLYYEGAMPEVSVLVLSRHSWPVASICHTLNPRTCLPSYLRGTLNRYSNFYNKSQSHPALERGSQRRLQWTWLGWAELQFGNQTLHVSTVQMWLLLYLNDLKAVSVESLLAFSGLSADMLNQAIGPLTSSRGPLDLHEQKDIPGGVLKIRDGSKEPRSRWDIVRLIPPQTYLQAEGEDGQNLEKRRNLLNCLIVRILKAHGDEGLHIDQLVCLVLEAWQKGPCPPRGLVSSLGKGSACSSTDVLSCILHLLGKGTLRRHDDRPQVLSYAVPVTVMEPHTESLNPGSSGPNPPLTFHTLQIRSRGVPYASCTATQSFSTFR
UniProt Q13616, whole entry, looked up: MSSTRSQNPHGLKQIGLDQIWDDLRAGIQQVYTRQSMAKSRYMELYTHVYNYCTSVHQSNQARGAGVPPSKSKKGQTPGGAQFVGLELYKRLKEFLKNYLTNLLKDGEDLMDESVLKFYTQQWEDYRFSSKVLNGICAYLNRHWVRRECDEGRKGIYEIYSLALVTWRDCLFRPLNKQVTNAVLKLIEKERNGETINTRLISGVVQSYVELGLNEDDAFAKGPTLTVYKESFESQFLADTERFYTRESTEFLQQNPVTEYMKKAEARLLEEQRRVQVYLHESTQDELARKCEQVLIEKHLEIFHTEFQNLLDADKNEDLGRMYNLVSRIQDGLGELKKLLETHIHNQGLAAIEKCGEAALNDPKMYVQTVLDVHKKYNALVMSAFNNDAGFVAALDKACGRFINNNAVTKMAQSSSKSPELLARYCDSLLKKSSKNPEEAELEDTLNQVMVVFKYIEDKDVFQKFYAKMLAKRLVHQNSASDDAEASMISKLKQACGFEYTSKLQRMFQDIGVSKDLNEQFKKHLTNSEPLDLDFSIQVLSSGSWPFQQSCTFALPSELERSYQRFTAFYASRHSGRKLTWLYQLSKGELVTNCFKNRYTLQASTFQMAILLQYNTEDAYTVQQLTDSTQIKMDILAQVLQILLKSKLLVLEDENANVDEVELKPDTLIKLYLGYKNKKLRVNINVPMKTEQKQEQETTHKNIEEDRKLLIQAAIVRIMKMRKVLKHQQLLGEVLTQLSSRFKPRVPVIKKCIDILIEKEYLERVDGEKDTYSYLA
UniProt Q5QP82: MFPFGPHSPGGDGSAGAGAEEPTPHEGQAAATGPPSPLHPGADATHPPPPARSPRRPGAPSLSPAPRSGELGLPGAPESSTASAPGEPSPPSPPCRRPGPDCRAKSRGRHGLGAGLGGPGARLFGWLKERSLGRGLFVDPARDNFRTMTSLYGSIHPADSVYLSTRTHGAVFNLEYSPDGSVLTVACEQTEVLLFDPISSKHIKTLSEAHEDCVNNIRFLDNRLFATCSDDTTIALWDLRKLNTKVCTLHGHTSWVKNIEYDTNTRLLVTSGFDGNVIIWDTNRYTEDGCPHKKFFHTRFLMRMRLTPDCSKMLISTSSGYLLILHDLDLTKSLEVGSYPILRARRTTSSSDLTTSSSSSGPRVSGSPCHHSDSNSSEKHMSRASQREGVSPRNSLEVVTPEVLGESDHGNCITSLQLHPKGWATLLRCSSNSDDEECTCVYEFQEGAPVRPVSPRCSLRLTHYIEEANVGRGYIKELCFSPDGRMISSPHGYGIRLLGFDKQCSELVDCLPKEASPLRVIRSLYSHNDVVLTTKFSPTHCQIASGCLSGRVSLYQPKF
UniProt O60911: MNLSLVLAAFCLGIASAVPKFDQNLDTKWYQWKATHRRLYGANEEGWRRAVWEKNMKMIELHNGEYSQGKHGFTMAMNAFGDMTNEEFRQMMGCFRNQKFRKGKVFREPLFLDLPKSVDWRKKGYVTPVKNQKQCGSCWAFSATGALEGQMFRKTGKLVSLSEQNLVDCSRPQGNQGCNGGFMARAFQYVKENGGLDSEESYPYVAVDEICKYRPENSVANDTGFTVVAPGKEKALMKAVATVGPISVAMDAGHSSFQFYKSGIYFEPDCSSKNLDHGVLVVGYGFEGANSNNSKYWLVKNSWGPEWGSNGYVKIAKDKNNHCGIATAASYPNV
UniProt Q69YN2: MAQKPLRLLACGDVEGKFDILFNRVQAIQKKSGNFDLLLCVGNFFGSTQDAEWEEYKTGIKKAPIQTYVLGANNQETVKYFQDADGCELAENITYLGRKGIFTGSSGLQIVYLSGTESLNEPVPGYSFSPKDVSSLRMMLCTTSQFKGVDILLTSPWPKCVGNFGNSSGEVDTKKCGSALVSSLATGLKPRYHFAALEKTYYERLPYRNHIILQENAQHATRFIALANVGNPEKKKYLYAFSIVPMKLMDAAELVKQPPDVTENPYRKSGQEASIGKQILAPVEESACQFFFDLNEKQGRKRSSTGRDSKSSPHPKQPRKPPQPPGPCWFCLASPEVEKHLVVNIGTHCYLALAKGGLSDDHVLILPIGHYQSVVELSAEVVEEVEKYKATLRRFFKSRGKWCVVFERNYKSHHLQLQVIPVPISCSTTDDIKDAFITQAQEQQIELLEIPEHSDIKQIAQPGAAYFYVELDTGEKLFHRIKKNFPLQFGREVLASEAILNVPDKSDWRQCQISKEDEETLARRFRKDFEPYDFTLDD
UniProt Q13619, whole entry, looked up: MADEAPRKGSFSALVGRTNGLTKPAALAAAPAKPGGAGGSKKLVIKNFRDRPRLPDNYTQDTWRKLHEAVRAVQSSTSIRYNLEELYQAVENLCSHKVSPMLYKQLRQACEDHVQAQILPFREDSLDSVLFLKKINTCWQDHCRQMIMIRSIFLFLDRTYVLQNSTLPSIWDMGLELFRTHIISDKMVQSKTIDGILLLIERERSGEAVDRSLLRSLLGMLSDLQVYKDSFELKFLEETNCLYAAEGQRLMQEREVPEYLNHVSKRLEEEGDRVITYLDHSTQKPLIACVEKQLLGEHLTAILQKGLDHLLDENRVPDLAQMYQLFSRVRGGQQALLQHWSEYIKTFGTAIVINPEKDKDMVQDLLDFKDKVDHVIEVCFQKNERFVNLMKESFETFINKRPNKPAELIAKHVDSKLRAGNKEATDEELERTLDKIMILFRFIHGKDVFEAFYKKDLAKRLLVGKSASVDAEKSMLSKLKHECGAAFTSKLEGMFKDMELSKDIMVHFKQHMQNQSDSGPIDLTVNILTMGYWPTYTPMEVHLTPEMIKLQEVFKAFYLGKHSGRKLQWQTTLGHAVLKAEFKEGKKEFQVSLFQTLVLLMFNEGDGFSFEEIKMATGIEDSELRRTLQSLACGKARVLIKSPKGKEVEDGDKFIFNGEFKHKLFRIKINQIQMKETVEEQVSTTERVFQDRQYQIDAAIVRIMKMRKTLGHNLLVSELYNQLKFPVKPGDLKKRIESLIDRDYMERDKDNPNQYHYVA
UniProt Q9NV06: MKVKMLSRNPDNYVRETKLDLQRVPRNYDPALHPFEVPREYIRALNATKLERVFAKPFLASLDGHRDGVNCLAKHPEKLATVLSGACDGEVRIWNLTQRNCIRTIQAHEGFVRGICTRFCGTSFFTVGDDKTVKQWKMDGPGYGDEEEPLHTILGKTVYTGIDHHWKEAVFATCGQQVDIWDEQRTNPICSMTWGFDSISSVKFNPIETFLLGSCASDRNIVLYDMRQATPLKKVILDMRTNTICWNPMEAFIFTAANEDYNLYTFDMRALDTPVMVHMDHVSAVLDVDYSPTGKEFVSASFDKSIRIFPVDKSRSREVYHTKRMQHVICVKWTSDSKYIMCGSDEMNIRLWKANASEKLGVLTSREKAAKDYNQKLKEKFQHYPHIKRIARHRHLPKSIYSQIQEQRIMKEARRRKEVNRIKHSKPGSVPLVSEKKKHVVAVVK
UniProt Q93034, whole entry, looked up: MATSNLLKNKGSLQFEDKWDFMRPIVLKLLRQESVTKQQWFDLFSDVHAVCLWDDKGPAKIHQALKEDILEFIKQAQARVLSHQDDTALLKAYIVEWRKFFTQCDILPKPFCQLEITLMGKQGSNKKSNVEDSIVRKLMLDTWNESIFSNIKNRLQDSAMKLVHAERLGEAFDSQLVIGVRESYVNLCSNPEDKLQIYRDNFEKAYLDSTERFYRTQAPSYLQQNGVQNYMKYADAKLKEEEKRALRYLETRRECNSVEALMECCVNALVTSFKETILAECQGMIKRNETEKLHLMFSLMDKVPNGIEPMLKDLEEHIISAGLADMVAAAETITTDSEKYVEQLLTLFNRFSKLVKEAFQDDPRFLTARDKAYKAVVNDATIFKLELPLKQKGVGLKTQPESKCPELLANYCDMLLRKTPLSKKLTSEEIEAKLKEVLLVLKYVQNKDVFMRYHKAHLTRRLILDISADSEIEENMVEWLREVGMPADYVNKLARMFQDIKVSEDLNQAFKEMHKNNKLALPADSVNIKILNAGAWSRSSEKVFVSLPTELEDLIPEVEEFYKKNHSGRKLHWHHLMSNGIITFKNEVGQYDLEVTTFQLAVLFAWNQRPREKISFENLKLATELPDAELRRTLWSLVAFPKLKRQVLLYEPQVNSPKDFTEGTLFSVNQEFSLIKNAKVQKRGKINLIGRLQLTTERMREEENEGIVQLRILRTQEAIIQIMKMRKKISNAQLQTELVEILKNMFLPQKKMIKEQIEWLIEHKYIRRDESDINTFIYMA

The other results are listed elsewhere or left out.
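Further: competitive chemoproteomic profiling in live THP-1 cells with an iodoacetamide desthiobiotin (IA-DTB) probe, comparing probe-labelled peptide intensities in compound-treated cells against DMSO-treated controls.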

“CYC1_P08574_139_HLVGVCYTEDEAK (UniProt P08574)”: the “probe-labelled cysteine peptide fold change” value worked out at 0.183 (10 µM) and 0.285 (50 µM).

As for “DCTN1_Q14203_81_YFTCDEGHGIFVR (UniProt Q14203)”, the “probe-labelled cysteine peptide fold change” value runs as follows: (10 µM) 0.00313; (50 µM) 0.0132.

For “CXXC1_Q9P0U4_420_IQQWQQSPCIAEEHGK (UniProt Q9P0U4)”, the “probe-labelled cysteine peptide fold change” value (10 µM) stood at 0.116 and the “probe-labelled cysteine peptide fold change” value (50 µM) stood at 0.0898.

For “DAP3_P51398_356_EFESCIQYYLENNWLQHEK (UniProt P51398)”, the “probe-labelled cysteine peptide fold change” value was -0.224 (10 µM) and -0.224 (50 µM).

Take “CUL7_Q14999_952_CQQGGIDTR (UniProt Q14999)”: the “probe-labelled cysteine peptide fold change” value by setting is: (10 µM) -0.0323; (50 µM) -0.0161.

On to “DCAF1_Q9Y4B6_1297_TFHLLHTVPALDQCR (UniProt Q9Y4B6)”, for which the “probe-labelled cysteine peptide fold change” value was 0.35 (10 µM) and 0.409 (50 µM).

As to “CUL4B_Q13620_297_CWQNHCR (UniProt Q13620)”, the “probe-labelled cysteine peptide fold change” value (10 µM) was determined as 0.0567 and the “probe-labelled cysteine peptide fold change” value (50 µM) is 0.295.

For the target “CWC22_Q9HCG8_497_ELCNMILDCCAQQR (UniProt Q9HCG8)”, the “probe-labelled cysteine peptide fold change” value is, setting by setting: (10 µM) -0.0492; (50 µM) 0.00266.

For the target CUL1_Q13616_149_ECDEGR (UniProt Q13616), the “probe-labelled cysteine peptide fold change” value (10 µM) came out at 0.194 and the “probe-labelled cysteine peptide fold change” value (50 µM) came to 0.0376.

In the case of “DCAF10_Q5QP82_369_VSGSPCHHSDSNSSEK (UniProt Q5QP82)”, the “probe-labelled cysteine peptide fold change” value was 0.293 (10 µM) and -0.489 (50 µM).

With “DCAF10_Q5QP82_213_TLSEAHEDCVNNIR (UniProt Q5QP82)”, the “probe-labelled cysteine peptide fold change” value was 0.0726 (10 µM) and -0.0884 (50 µM).

For “CTSD_P07339_117_LLDIACWIHHK (UniProt P07339)”, the “probe-labelled cysteine peptide fold change” value reads like this: (10 µM) -0.0531; (50 µM) 0.0905.

With “CTSV_O60911_211_ENGGLDSEESYPYVAVDEICK (UniProt O60911)”, the “probe-labelled cysteine peptide fold change” value (10 µM) is -0.148 and the “probe-labelled cysteine peptide fold change” value (50 µM) was -0.291.

As for “CUL1_Q13616_137_VLNGICAYLNR (UniProt Q13616)”, the “probe-labelled cysteine peptide fold change” value came to 0.0248 (10 µM) and 0.0123 (50 µM).

“DCTN4_Q9UJW0_114_AYYLACGFCR (UniProt Q9UJW0)”: the “probe-labelled cysteine peptide fold change” value reads like this: (10 µM) 0.00527; (50 µM) 0.225.

“CTSB_P07858_319_ILRGQDHCGIESEVVAGIPR (UniProt P07858)”: the “probe-labelled cysteine peptide fold change” value runs as follows: (10 µM) -0.322; (50 µM) -0.501.

Consider “CWF19L1_Q69YN2_87_YFQDADGCELAENITYLGR (UniProt Q69YN2)”, for which the “probe-labelled cysteine peptide fold change” value by setting is: (10 µM) 0.3; (50 µM) 0.372.

With “DAB2IP_Q5VWQ8_487_IINSYCVFPR (UniProt Q5VWQ8)”, the “probe-labelled cysteine peptide fold change” value reads like this: (10 µM) 0.0544; (50 µM) 0.0417.

“CUL4A_Q13619_289_RLEEEGDRVITYLDHSTQKPLIACVEK (UniProt Q13619)”: the “probe-labelled cysteine peptide fold change” value reads like this: (10 µM) -0.396; (50 µM) -0.269.

Turning to “DCAF13_Q9NV06_330_RMQHVICVK (UniProt Q9NV06)”, the “probe-labelled cysteine peptide fold change” value was 0.155 (10 µM) and 0.332 (50 µM).

Consider “DCLK2_Q8N568_288_YAQDDFVLDHSECR (UniProt Q8N568)”, for which the “probe-labelled cysteine peptide fold change” value by setting is: (10 µM) -0.0451; (50 µM) 0.0376.

Turning to “CUL4A_Q13619_289_PLIACVEK (UniProt Q13619)”, the “probe-labelled cysteine peptide fold change” value was determined as 0.0437 (10 µM) and 0.144 (50 µM).

In the case of “CUL9_Q8IWT3_76_AEHILMWLSAPEVYANCPGLLGER (UniProt Q8IWT3)”, the “probe-labelled cysteine peptide fold change” value is, setting by setting: (10 µM) -0.0293; (50 µM) -0.0811.

“CTR9_Q6PD62_207_LGMGHCFVK (UniProt Q6PD62)”: the “probe-labelled cysteine peptide fold change” value is, setting by setting: (10 µM) -0.0454; (50 µM) -0.024.

In the case of “CUL5_Q93034_265_RECNSVEALMECCVNALVTSFK (UniProt Q93034)”, the “probe-labelled cysteine peptide fold change” value by setting is: (10 µM) 0.105; (50 µM) 0.221.

On to “DCLRE1C_Q96SD1_61_VYLYCSPVTK (UniProt Q96SD1)”, for which the “probe-labelled cysteine peptide fold change” value turned out to be 0.00171 (10 µM) and 0.113 (50 µM).

As for “DAXX_Q9UER7_338_HLDLIYNFGCHLTDDYRPGVDPALSDPVLAR (UniProt Q9UER7)”, the “probe-labelled cysteine peptide fold change” value reads like this: (10 µM) 0.0212; (50 µM) -0.0317.

As for “CUL4A_Q13619_94_YNLEELYQAVENLCSHK (UniProt Q13619)”, the “probe-labelled cysteine peptide fold change” value (10 µM) is -0.12 and the “probe-labelled cysteine peptide fold change” value (50 µM) was -0.0336.

Turning to “CTSL_P07711_322_NHCGIASAASYPTV (UniProt P07711)”, the “probe-labelled cysteine peptide fold change” value runs as follows: (10 µM) -0.124; (50 µM) -0.205.

“CWF19L1_Q69YN2_11_LLACGDVEGK (UniProt Q69YN2)”: the “probe-labelled cysteine peptide fold change” value (10 µM) was 0.171 and the “probe-labelled cysteine peptide fold change” value (50 µM) was -0.0951.

Regarding “CTSB_P07858_319_GQDHCGIESEVVAGIPR (UniProt P07858)”, the “probe-labelled cysteine peptide fold change” value by setting is: (10 µM) -0.0342; (50 µM) -0.204.

As to “DARS2_Q6PI48_459_LRLECADLLETR (UniProt Q6PI48)”, the “probe-labelled cysteine peptide fold change” value reads like this: (10 µM) -0.0104; (50 µM) -0.00375.

In the case of “CTR9_Q6PD62_309_VQHLALHAFHNTEVEAMQAESCYQLAR (UniProt Q6PD62)”, the “probe-labelled cysteine peptide fold change” value runs as follows: (10 µM) 0.335; (50 µM) 0.0964.

With “DARS_P14868_203_LQSGICHLFR (UniProt P14868)”, the “probe-labelled cysteine peptide fold change” value is, setting by setting: (10 µM) 0.11; (50 µM) 0.0507.

“DBT_P11182_99_EGDTVSQFDSICEVQSDK (UniProt P11182)”: the “probe-labelled cysteine peptide fold change” value (10 µM) is -0.0268 and the “probe-labelled cysteine peptide fold change” value (50 µM) worked out at 0.129.

“CUL7_Q14999_1106_LTHLLVHVEPCEAPPPVVATPR (UniProt Q14999)”: the “probe-labelled cysteine peptide fold change” value (10 µM) worked out at 0.0263 and the “probe-labelled cysteine peptide fold change” value (50 µM) worked out at 2.5e-05.

Regarding “CUL4A_Q13619_633_TLQSLACGK (UniProt Q13619)”, the “probe-labelled cysteine peptide fold change” value is 0.00787 (10 µM) and -0.195 (50 µM).

Take “CTSC_P53634_448_RGTDECAIESIAVAATPIPK (UniProt P53634)”: the “probe-labelled cysteine peptide fold change” value runs as follows: (10 µM) -0.0605; (50 µM) -0.0793.

Consider “CXorf38_Q8TB03_24_AGHCLLLLR (UniProt Q8TB03)”, for which the “probe-labelled cysteine peptide fold change” value (10 µM) is -0.198 and the “probe-labelled cysteine peptide fold change” value (50 µM) was -0.0361.

Take “CYB5R3_P00387_284_APEAWDYGQGFVNEEMIRDHLPPPEEEPLVLMCGPPPMIQYACLPNLDHVGHPTER (UniProt P00387)”: the “probe-labelled cysteine peptide fold change” value is, setting by setting: (10 µM) -0.331; (50 µM) -0.407.

Turning to “CTSZ_Q9UBR2_92_NQHIPQYCGSCWAHASTSAMADR (UniProt Q9UBR2)”, the “probe-labelled cysteine peptide fold change” value reads like this: (10 µM) 0.19; (50 µM) 0.0613.

Consider “CXXC1_Q9P0U4_38_KPDINCFMIGCDNCNEWFHGDCIR (UniProt Q9P0U4)”, for which the “probe-labelled cysteine peptide fold change” value (10 µM) was -0.196 and the “probe-labelled cysteine peptide fold change” value (50 µM) was -0.0436.

The values are drawn from the supplement of paper PMC12067093, “Discovery and optimisation of a covalent ligand for TRIM25 and its application to targeted protein ubiquitination” (Chemical Science, 2025).
